Assay results published in PubChem BioAssay AID2685 (National Center for Advancing Translational Sciences (NCATS), 2010).
This is one part of the list. Shown are side measurements of this screen, not its main read-out; they come without a call. Compounds called inactive in the main read-out are mostly missing here. Potencies come from curve fits of mixed quality, noted in brackets.

Assay: qHTS Assay for Lipid Storage Modulators in Drosophila S3 Cells;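 for cell number change: cells counted by Cell Tracker Red CMTPX staining in the red channel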
Conditions: BODIPY lipid droplet fluorescence, 18-24 h; for cell number change: measured here: cell count max response, cells fed with added oleic acid
How it was run: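 Drosophila S3 cells got compounds at several concentrations plus oleic acid (400 uM solution). Laser-scanning cytometry with 488 nm excitation read lipid droplets at 500-530 nm and cells at 575-640 nm. Percent activity was relative to 20 uM Triacsin C.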

[1] = measured here: cell number channel AC50, cells fed with added oleic acid
[2] = measured here: lipid fluorescence (Fed channel) AC50, cells fed with added oleic acid

| Structure (SMILES) | cell number change [%] | AC50 [1] | AC50 [2] |
| --- | --- | --- | --- |
| CCN1CCN(c2ccc(S(=O)(=O)N3CCCCC3)cc2NC(=O)CC(C)c2ccccc2)CC1 (stereo not given) | 89.2 | 18.4 µM [rising, single point] | – |
| Cc1cc(NC(=O)Nc2ccccc2Cl)no1 | -11.9 | – | 0.103 µM [falling, full curve, poor fit] |
| C=CCN1C(=O)C(O)(CC(=O)c2ccc(N)cc2)c2ccccc21 (stereo not given) | -1.01 | – | 0.206 µM [falling, full curve, poor fit] |
| Cc1ccc(OCCNc2cc(N3CCN(CCO)CC3)ccc2[N+](=O)[O-])cc1C | -29.5 | – | 8.2 µM [falling, single point] |
| C=CCC1Cc2c(Br)cccc2C(CC=C)N1 (stereo not given) | 5.48 | – | – |
| Cc1ccccc1NC(=O)c1onc2c1CCCC2 | – | – | 10.3 µM [falling, partial curve] |
| CCS(=O)(=O)N1CCN(S(=O)(=O)c2ccccc2)CC1 | -34.6 | – | 0.103 µM [falling, full curve, poor fit] |
| CCC(=O)N(CCc1ccc(OC)c(OC)c1)Cc1cc2ccc(C)cc2n2nnnc12 | – | – | 3.66 µM [falling, full curve] |
| CCN1CCn2c3c(c4cc(Cl)ccc42)CCCC31 (stereo not given) | -27.2 | – | 1.3 µM [falling, full curve] |
| COC(=O)COc1ccc(S(=O)(=O)N2CCCCC2)cc1[N+](=O)[O-] | 6.19 | – | – |
| CC(NC(=O)/C=C/c1cnc2ccccc2n1)C12CC3CC(CC(C3)C1)C2 (stereo not given) | -3 | – | 4.11 µM [rising, partial curve] |
| Oc1ccccc1-c1nc(/C=C/c2ccccc2)nn1-c1ccccc1 | -48.1 | 32.6 µM [falling, single point] | 3.26 µM [falling, partial curve] |
| Cc1cc(=O)oc2c3c(cc(OCC(=O)NC(Cc4ccc(Cl)cc4)C(=O)O)c12)OC(C)(C)CC3 (stereo not given) | 17.8 | – | 29.1 µM [falling, single point] |
| O=C(N1CCN(Cc2ccccc2)CC1)C12CC3CC(CC(C3)C1)C2 | -56.9 | 32.6 µM [falling, single point] | – |
| O=[N+]([O-])c1ccc(Nc2ccccc2F)nc1 | -5.28 | – | 0.82 µM [falling, full curve] |
| CC1(C)CCc2cc(-c3ccnc(=S)[nH]3)ccc2O1 | -47.6 | 0.731 µM [falling, full curve] | 29.1 µM [falling, single point] |
| Cn1cnc([N+](=O)[O-])c1SCC(=O)NN | 21.8 | – | 2.06 µM [rising, full curve, poor fit] |
| CCOc1ccc(CNS(=O)(=O)c2c(C(=O)N3CCCC3)c(C)n(C)c2C)cc1OC | -0.659 | – | 29.1 µM [rising, single point] |
| CCCC(=O)Nc1ccc(NC(=S)NC(=O)c2cccs2)cc1 | -34 | 23.1 µM [falling, single point] | – |
| CCOc1cc(CN2CCN(c3cccc(C(F)(F)F)c3)CC2)ccc1O | -64.6 | 13 µM [falling, partial curve, poor fit] | 29.1 µM [falling, single point] |
| CCn1c2ccccc2c2cc(NC(=O)c3coc(=O)c(Br)c3)ccc21 | 6.2 | 6.51 µM [falling, single point] | 6.51 µM [falling, single point] |

In another format: twelve of the compounds above
Structure (SMILES)	cell number change [%]	AC50 [1]	AC50 [2]
CCN1CCN(c2ccc(S(=O)(=O)N3CCCCC3)cc2NC(=O)CC(C)c2ccccc2)CC1 (stereo not given)	89.2	18.4 µM [rising, single point]	–
Cc1cc(NC(=O)Nc2ccccc2Cl)no1	-11.9	–	0.103 µM [falling, full curve, poor fit]
C=CCN1C(=O)C(O)(CC(=O)c2ccc(N)cc2)c2ccccc21 (stereo not given)	-1.01	–	0.206 µM [falling, full curve, poor fit]
Cc1ccc(OCCNc2cc(N3CCN(CCO)CC3)ccc2[N+](=O)[O-])cc1C	-29.5	–	8.2 µM [falling, single point]
C=CCC1Cc2c(Br)cccc2C(CC=C)N1 (stereo not given)	5.48	–	–
CCS(=O)(=O)N1CCN(S(=O)(=O)c2ccccc2)CC1	-34.6	–	0.103 µM [falling, full curve, poor fit]
CCC(=O)N(CCc1ccc(OC)c(OC)c1)Cc1cc2ccc(C)cc2n2nnnc12	–	–	3.66 µM [falling, full curve]
CCN1CCn2c3c(c4cc(Cl)ccc42)CCCC31 (stereo not given)	-27.2	–	1.3 µM [falling, full curve]
O=[N+]([O-])c1ccc(Nc2ccccc2F)nc1	-5.28	–	0.82 µM [falling, full curve]
CC1(C)CCc2cc(-c3ccnc(=S)[nH]3)ccc2O1	-47.6	0.731 µM [falling, full curve]	29.1 µM [falling, single point]
CCCC(=O)Nc1ccc(NC(=S)NC(=O)c2cccs2)cc1	-34	23.1 µM [falling, single point]	–
CCOc1cc(CN2CCN(c3cccc(C(F)(F)F)c3)CC2)ccc1O	-64.6	13 µM [falling, partial curve, poor fit]	29.1 µM [falling, single point]

(further entries)

| Structure (SMILES) | cell number change [%] | AC50 [1] | AC50 [2] |
| --- | --- | --- | --- |
| Cc1ccc(C)c(-n2c(Cc3cc(=O)[nH]c(=O)[nH]3)nnc2SCC(=O)NCC2CCCO2)c1 (stereo not given) | -14.1 | – | 2.59 µM [rising, single point] |
| C[C@H](NC(=O)c1nc[nH]c1C(=O)NCCCCCN)C(=O)OC(C)(C)C | -36.6 | 0.146 µM [falling, full curve, poor fit] | 0.092 µM [falling, full curve, poor fit] |
| O=C(COC(=O)c1ccccc1Nc1ccccc1)NCc1ccco1 | – | 6.51 µM [falling, single point] | 6.51 µM [falling, single point] |
| CCOc1ccc(-n2nnnc2SCC(=O)Nc2cccc(O)c2)cc1 | -20.7 | – | 18.4 µM [falling, single point] |
| CC(Sc1nc2ccccc2s1)C(=O)c1c(N)n(C)c(=O)n(C)c1=O (stereo not given) | -0.844 | – | – |
| O=C1NC(c2ccccc2)(C(F)(F)F)C(=O)N1Cc1cccnc1 (stereo not given) | 39.6 | 2.59 µM [rising, partial curve] | – |
| CCOc1ccc(NC(=O)CN(C)C(=O)c2ccc(NC3CC3)c([N+](=O)[O-])c2)cc1OCC | 2.93 | – | – |
| COC(=O)C1=C(C(=O)OC)[C@@H]2N(Cc3ccccc3)c3ccccc3[C@@]23C[C@@H](C(=O)OC)N(C(=O)c2ccc(Br)cc2)C3=N1 | -3.59 | – | 0.231 µM [rising, full curve, poor fit] |
| CN(C)CCNc1nc2sc3c(c2c(=O)n1CCc1ccccc1)CCCCC3 | -13.9 | – | 32.6 µM [falling, single point] |
| Cc1ccc(S(=O)(=O)NC(C)C(=O)Nc2ccc(C(N)=O)cc2)cc1 (stereo not given) | -3.88 | – | 3.66 µM [falling, partial curve] |
| N#Cc1cc(C(=O)c2cc(F)ccc2O)cn(-c2nccs2)c1=O | 38.4 | 4.61 µM [rising, full curve, poor fit] | 6.51 µM [rising, partial curve, poor fit] |
| Cc1cccc(NC(=S)N2CCC(O)CC2)c1C | 8.26 | – | 0.562 µM [falling, partial curve] |
| CCOC(=O)CNc1nc(Cl)c(C#N)s1 | -5.89 | – | – |
| CC1CC(C)CN(C(=O)c2cc(-c3ccncc3)nc3ccccc23)C1 (stereo not given) | – | – | 3.66 µM [rising, single point] |
| CCC(C(=O)NCc1cccc(C)c1)n1nc(C)c2c(C)n(-c3ccccc3)nc2c1=O (stereo not given) | 2.65 | – | 6.51 µM [falling, single point] |
| O=C(CSc1nc2ccccc2o1)N/N=C/c1ccc(O)c(O)c1 | -20.6 | – | – |
| Cc1cc(C(=O)C(=O)O)c(C)n1-c1ccc(Cl)cc1 | 0.615 | 6.51 µM [falling, single point] | – |
| CC(C)NC(=O)COC(=O)c1ccc(Cl)c(S(N)(=O)=O)c1 | -28 | 3.66 µM [falling, single point] | – |
| COc1cc(Cl)c(C)cc1NC(=O)CSc1nc2ccccc2o1 | – | – | 0.731 µM [rising, single point] |
| CCOC(=O)c1cnc2nc(N3CCOCC3)nn2c1N | 8.28 | – | – |
| c1ccc2oc(-c3csc(NCC4CCCO4)n3)cc2c1 (stereo not given) | 49.6 | 2.59 µM [rising, full curve] | – |

| Structure (SMILES) | cell number change [%] | AC50 [1] | AC50 [2] |
| --- | --- | --- | --- |
| O=c1c2ccccc2c(/C=N/c2ncn[nH]2)c(O)n1Cc1ccccc1 | -22.3 | – | – |
| COc1ccc(OC(C)C(=O)N2CCN(c3ccccn3)CC2)cc1 (stereo not given) | -2.43 | – | 20.6 µM [rising, single point] |
| Cc1nn(-c2ccccc2)c(C)c1/C=N\NS(=O)(=O)c1ccc(Cl)cc1 | 76.2 | 13 µM [rising, partial curve] | 6.51 µM [rising, single point] |
| CCN(CC)c1ccc(/C=N/NC(=O)OC)c(O)c1 | – | – | 2.06 µM [falling, partial curve] |
| CCn1cc(C(=O)NCc2ccco2)c(=O)c2cc(S(=O)(=O)N3CCC(C)CC3)ccc21 | -16 | 0.326 µM [falling, full curve, poor fit] | 0.146 µM [falling, full curve, poor fit] |
| CC(=O)c1c(C)nc(-c2ccccc2)nc1NC(=O)C(C)C | 78.4 | 10.3 µM [rising, partial curve] | 0.00517 µM [rising, full curve, poor fit] |
| Nc1nnc(SC2CC(=O)N(c3ccccc3)C2=O)s1 (stereo not given) | 3.04 | – | 11.6 µM [rising, partial curve, poor fit] |
| Cc1ccc2c(CC(=O)O)coc2c1 | 21.5 | – | 32.6 µM [falling, partial curve, poor fit] |
| O=C(NCC1CCN(Cc2cccc(Cl)c2)CC1)C1CCCN(c2ncnc3c2nc2n3CCCCC2)C1 (stereo not given) | 8.66 | – | – |
| Cc1ccc(C(=O)O/N=C/c2c(N3CCOCC3)n(C)c3ccccc23)cc1 | -16.3 | – | 18.4 µM [falling, partial curve] |
| CCOC(=O)c1c(-c2ccc(OC)cc2)csc1/N=C/C1C(=O)CCCC1=O | -44.2 | – | 29.1 µM [falling, single point] |
| Cc1c(Cl)cccc1NC(=O)Nc1cnccn1 | 2.44 | – | 11.6 µM [falling, partial curve, poor fit] |
| Cc1nc2scc(-c3cccs3)c2c(=O)n1N | -39.4 | 7.31 µM [falling, partial curve] | 6.51 µM [falling, partial curve] |
| COc1cc(NC(=O)c2ccc(F)cc2)c(OC)cc1NC(=O)CN1CCCCC1 | -1.25 | – | – |
| Cc1c(O)ccc2c(CN(C)Cc3ccccc3)cc(=O)oc12 | 7.68 | 0.58 µM [falling, single point] | – |
| Cn1c(=O)n(C)c2cc(NS(=O)(=O)c3ccccc3[N+](=O)[O-])ccc21 | 16.1 | – | – |
| COc1cccc(/C=N/NC(=S)NC2CC3CCC2C3)c1OC (stereo not given) | – | – | 1.3 µM [rising, partial curve] |
| CCc1noc(C)c1C(=O)N1CCC(CCC(=O)Nc2cccc(OC)c2)CC1 | 3.74 | – | 0.112 µM [rising, full curve, poor fit] |
| Cc1ccc2c(c1)C(c1ccncc1)=NNC(c1ccc(F)cc1)=N2 | 16.9 | 0.517 µM [rising, full curve, poor fit] | – |
